One substance from PMC6297349 can be followed below.

Protein sequences, listed by entry. Tags and fused reporters are not part of them.
UniProt Q12888: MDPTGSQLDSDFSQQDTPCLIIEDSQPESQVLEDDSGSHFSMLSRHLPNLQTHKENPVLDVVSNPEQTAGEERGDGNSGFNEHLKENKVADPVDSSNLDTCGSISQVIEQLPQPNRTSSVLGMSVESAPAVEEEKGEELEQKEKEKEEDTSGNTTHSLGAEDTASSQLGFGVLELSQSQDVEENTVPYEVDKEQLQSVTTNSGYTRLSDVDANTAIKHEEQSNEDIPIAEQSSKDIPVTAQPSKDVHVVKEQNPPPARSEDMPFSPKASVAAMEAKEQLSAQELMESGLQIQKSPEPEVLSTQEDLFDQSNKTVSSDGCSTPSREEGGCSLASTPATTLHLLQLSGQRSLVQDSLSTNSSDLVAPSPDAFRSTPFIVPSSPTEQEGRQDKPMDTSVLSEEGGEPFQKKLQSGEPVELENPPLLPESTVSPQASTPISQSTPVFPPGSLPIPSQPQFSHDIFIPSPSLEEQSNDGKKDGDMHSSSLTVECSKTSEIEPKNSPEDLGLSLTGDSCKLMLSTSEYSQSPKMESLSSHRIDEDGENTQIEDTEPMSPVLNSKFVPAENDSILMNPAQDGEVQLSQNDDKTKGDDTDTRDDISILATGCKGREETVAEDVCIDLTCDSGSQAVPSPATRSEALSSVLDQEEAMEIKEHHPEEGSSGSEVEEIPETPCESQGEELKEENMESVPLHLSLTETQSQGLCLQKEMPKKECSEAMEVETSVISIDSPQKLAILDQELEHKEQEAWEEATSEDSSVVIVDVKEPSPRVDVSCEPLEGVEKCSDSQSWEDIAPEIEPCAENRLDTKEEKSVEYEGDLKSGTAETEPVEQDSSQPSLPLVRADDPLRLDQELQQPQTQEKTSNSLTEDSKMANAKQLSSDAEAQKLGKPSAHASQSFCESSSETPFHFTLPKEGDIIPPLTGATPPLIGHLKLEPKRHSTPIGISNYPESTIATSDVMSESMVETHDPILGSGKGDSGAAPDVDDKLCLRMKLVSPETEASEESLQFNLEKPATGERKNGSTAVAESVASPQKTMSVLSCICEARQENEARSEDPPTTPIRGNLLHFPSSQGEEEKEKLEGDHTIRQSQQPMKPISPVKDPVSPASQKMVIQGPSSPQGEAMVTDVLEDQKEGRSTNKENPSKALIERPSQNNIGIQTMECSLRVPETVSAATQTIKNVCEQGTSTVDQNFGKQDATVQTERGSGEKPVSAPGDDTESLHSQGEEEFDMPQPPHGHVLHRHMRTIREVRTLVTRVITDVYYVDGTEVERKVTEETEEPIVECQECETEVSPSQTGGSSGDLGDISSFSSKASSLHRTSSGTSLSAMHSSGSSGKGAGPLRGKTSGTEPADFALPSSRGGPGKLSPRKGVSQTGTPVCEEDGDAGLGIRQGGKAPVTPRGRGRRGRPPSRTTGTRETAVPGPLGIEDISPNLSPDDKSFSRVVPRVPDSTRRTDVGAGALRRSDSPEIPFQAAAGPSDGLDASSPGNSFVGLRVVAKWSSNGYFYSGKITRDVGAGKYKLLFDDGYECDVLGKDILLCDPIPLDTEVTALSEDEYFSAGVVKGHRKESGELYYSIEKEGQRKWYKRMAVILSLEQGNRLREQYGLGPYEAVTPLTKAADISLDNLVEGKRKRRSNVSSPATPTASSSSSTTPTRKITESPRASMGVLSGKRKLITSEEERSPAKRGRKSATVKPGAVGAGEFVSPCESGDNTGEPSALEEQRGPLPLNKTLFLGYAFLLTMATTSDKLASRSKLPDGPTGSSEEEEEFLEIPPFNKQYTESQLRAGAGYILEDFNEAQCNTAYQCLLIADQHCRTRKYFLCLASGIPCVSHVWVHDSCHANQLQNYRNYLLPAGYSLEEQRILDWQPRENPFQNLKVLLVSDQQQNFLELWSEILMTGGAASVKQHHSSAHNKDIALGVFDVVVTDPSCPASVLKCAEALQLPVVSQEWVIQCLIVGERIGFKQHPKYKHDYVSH
UniProt P63167: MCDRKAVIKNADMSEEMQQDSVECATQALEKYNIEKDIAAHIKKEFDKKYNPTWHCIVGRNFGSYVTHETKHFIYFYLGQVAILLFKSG

Results are given in words; binding and its absence hold for the method and conditions named. In cells and extracts the contact can be indirect. Some binding calls cover weakened binding; strength is not graded here.

This assay addresses FLAG-HA-tagged wild type 53BP1 (TP53-binding protein 1) (UniProt Q12888). Description: co-IP; FLAG-HA-53BP1 immuno-complexes on anti-FLAG M2 magnetic beads from HEK 293T whole cell extracts 48 h after transfection, untreated or irradiated (10 Gy, 1 h); bound at 150 mM KCl, washed at 100 mM KCl, eluted with 3x FLAG peptide; blotted for DYNLL1.

In the case of “dynein light chain 1 (DYNLL1), endogenous (from UniProt P63167 1-89)”, the binding result was “binds”.
